# Among all 400,000 compounds or so, about 13,000 (3.2%) were called active. This list was built around the results that the source calls inconclusive (neither active nor inactive); the mix of calls is not that of the screen. Calls follow the shape of the dose curve; as a rule, active = well fitted cell-killing curve with a large enough effect; inconclusive = small, poorly fitted or top-dose-only effect, or effect the other way; inactive = flat fitted curve, though single readings scatter. Potencies of inconclusive entries are doubtful fits and often do not repeat.
# Assay: qHTS assay for MDR1-selective chemotherapeutics: Primary screen using the drug-selected MDR subline cells KB-V1; also: nearly all actives have a fitted effect of over 60% in size
# Conditions: KB-V1 MDR cells viability, CellTiter-Glo, 72 h; activity change, negative = cytotoxicity: at 46.1 µM (top of the series)
# Summary of the method: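 KB-V1 cells (P-gp-expressing MDR subline of KB-3-1) in phenol-red-free DMEM with 10% FBS were exposed to library compounds over a concentration series for 72 h at 37 degrees C. Viability read by CellTiter-Glo luminescence; concentration-effect curves fitted after normalization.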
# % is scaled to controls: 0 for no effect and ±100 for the full control effect; potency is read from the fitted curve at half-maximal effect.
Structure (SMILES),Potency,"activity change, negative = cytotoxicity"
CCOc1ccc(Oc2nc(NCC(C)C)nc(N(C)C)n2)nn1,"inconclusive: 20.6 µM [cytotoxic, partial curve]",
O=C(NCc1cc(C(F)(F)F)cc(C(F)(F)F)c1)C1CC(c2ccc(C(F)(F)F)cc2)=NO1 (configuration not stated),,inactive: 9.35%
Cc1c(C(=O)Nc2ccccc2)cn2c(nc3ccccc32)c1C#N,,inactive: -31.1%
Cn1cccc1Cc1nnc(SCC(=O)NCc2ccccc2)n1-c1ccc(F)cc1,"inconclusive: 29.1 µM [rising, single point]",
COc1cc(O)c(C(CC(=O)N2CCC(c3ccccc3)CC2)c2ccc(C)cc2)c(OC)c1 (configuration not stated),"inconclusive: 63.1 µM [cytotoxic, single point]",
Cc1ccccc1C(C(=O)NCc1ccco1)N(CC1CCCO1)C(=O)Cn1nnc2ccccc21 (configuration not stated),"inconclusive: 16.4 µM [cytotoxic, single point]",
Cc1ccccc1OCC(=O)OCC(=O)Nc1cc(S(=O)(=O)N2CCCCC2)ccc1Cl,,inactive: -19.5%
Cc1ccc(NC(=O)CN(C)C(=O)/C=C/c2ccc3c(c2)OCO3)cc1,"inconclusive: 20.6 µM [rising, single point]",
COc1ccccc1OCc1cc(C(=O)N(C)CCC2CCOCC2)no1,"inconclusive: 18.4 µM [cytotoxic, partial curve, poor fit]",
CN(c1ccc(C(=O)NCc2ccncc2)cc1)S(=O)(=O)c1ccc(Cl)cc1,"inconclusive: 11.6 µM [cytotoxic, partial curve]",
COc1cc2c(cc1OC)C(c1cc(OC)c(O)c(OC)c1)CC(=O)N2 (configuration not stated),"inconclusive: 14.6 µM [rising, partial curve, poor fit]",
CC(=O)c1cccc(CN2CCc3ccc(NC(=O)C4CCCO4)cc3C2)c1 (configuration not stated),,inconclusive: -49.9%
CCOC(=O)C1CCCN(S(=O)(=O)c2ccc(S(=O)(=O)N(CC)CC)cc2)C1 (configuration not stated),"inconclusive: 29.1 µM [cytotoxic, single point]",
Cc1cc(NC(=O)CSc2ccc(Cl)cc2)no1,,inactive: 6.3%
COc1ccc(NC(=S)N2CCCC2)cc1,,inactive: -10.7%
COc1ccc(NC(=O)C2c3ccccc3OCC(=O)N2Cc2ccco2)cc1 (configuration not stated),,inactive: 1.35%
CC1CCCN(Cc2c(O)ccc3c(=O)c(-c4ccc(Cl)cc4)c(C(F)(F)F)oc23)C1 (configuration not stated),,inactive: 3.93%
CCC(C(=O)NC(C)(C)C)N(C(=O)Cn1nnc(-c2ccccc2F)n1)c1cccc2c1CCCC2 (configuration not stated),active: 1.64 µM,
NC(=O)c1c(NC(=O)c2ccccc2)sc2c1CCN(Cc1ccccc1)C2,,inactive: -13%
Cc1ccc(-c2c(C)n3c4c(=O)n(C)c(=O)n(C)c4nc3n2CCCO)cc1,active: 6.51 µM,
Cc1ccccc1OCC(=O)Nc1ccccc1C(=O)NC1CC1,"inconclusive: 6.51 µM [cytotoxic, partial curve]",
Cc1ccccc1-c1nn(-c2ccc(F)cc2F)cc1CNCCN(C)C,"inconclusive: 25.9 µM [cytotoxic, partial curve, poor fit]",
OC[C@@H]1[C@@H](c2ccccc2)C(c2cccc(Cl)c2)=NN1c1ccccc1,"inconclusive: 32.6 µM [cytotoxic, single point]",
CCOC(=O)c1ccccc1NC(=O)Cn1c(=O)n(Cc2ccc(C(=O)NCc3ccc4c(c3)OCO4)cc2)c(=O)c2ccccc21,,inconclusive: -17.8%

Structure (SMILES),Potency,"activity change, negative = cytotoxicity"
Cc1cc(C)cc(Oc2ccccc2/C=N\O)c1,,inactive: 35.7%
O=C(N/N=C/c1cc2c(cc1Br)OCO2)c1ccccn1,"inconclusive: 18.4 µM [cytotoxic, partial curve]",
COC(=O)c1c(NC(=O)CC2Nc3ccccc3NC2=O)sc(C)c1C (configuration not stated),"inconclusive: 13 µM [cytotoxic, partial curve]",
O=C(NCc1cccnc1)c1sc2ccccc2c1Cl,,inactive: 11.4%
O=C(OCCOc1ccc(Cl)cc1)c1cc(S(=O)(=O)N2CCCCC2)ccc1N1CCOCC1,"inconclusive: 4.11 µM [cytotoxic, full curve, poor fit]",
CN1CCN(S(=O)(=O)c2cc(C(F)(F)F)ccc2Cl)CC1,"inconclusive: 9.2 µM [rising, single point]",
COc1ccc(C2SCCN2S(=O)(=O)c2ccccc2)cc1OC (configuration not stated),"inconclusive: 10.3 µM [cytotoxic, partial curve, poor fit]",
Cc1cccc(C(=O)NC(=O)Nc2ccc(-n3nc(C(F)(F)F)cc3C(F)(F)F)cc2)c1,,inactive: 24.2%
Cc1ccc(NC(=O)CCNC(=O)c2ccccc2Cl)cc1S(=O)(=O)N(C)C,,inactive: 11.8%
CC(=O)N1c2c(cc(Br)cc2S(=O)(=O)Nc2ccccc2C)CC1C (configuration not stated),,inactive: 2.35%
O=C(COC(=O)Cc1c(F)cccc1Cl)NNC(=O)c1ccccc1,,inactive: -7.57%
O=C1COc2cc(S(=O)(=O)CCC(=O)N3CCCCC3)c(Cl)cc2N1,,inactive: -4.32%
COc1cccc(SCc2noc(C(=O)NCCN(C)C)c2C(=O)NCCN(C)C)c1,"inconclusive: 29.1 µM [rising, single point]",
Cc1cccc(-n2cnc3cc(C(=O)NCC4CCCO4)ccc32)c1 (configuration not stated),"inconclusive: 23.1 µM [cytotoxic, single point]",
O=C(CN1C(=O)NC2(CCc3ccccc32)C1=O)Nc1c(Cl)cccc1Cl (configuration not stated),,inactive: 16%
COc1ccc(Cl)cc1N(CC(=O)Nc1ccc2c(c1)OCCO2)S(C)(=O)=O,"inconclusive: 4.61 µM [cytotoxic, partial curve]",
CC(c1ccccc1)N(CCC(c1ccccc1)C1CCOC(C)(C)C1)C(=O)c1ccco1 (configuration not stated),active: 9.2 µM,
Cc1nn(Cc2ccccc2)c(Cl)c1C(=O)OCc1nnc(-c2ccccc2)o1,active: 7.31 µM,
COc1cccc(-c2cc3nc(NCc4ccc(C)cc4C)n(C)c(=O)c3s2)c1,"inconclusive: 20.6 µM [cytotoxic, single point]",
Cc1noc(/C=C/N(C)C)c1S(=O)(=O)N1CCCC(C(=O)NC(C)c2ccccc2)C1 (configuration not stated),,inactive: 14.2%
COc1ccc(Br)cc1CN1CCN(C(=O)c2ccc(OC)c(OC)c2)CC1,,inactive: 18.6%
Cc1c2cnn(CC(=O)NCc3ccc(F)cc3)c(=O)c2c(C)n1Cc1ccccc1Cl,,inactive: -20.8%
COc1ccc(CCNC(=O)CC2Oc3ccc(Cl)cc3NC2=O)cc1OC (configuration not stated),"inconclusive: 3.26 µM [rising, full curve, poor fit]",
CCOc1cc(Br)c(C2C(C(=O)OC)=C(C)NC3=C2C(=O)c2ccccc23)cc1OCC (configuration not stated),"inconclusive: 0.0461 µM [cytotoxic, full curve]",

# Entries above with fluorine (9):
Structure (SMILES),Potency,"activity change, negative = cytotoxicity"
O=C(NCc1cc(C(F)(F)F)cc(C(F)(F)F)c1)C1CC(c2ccc(C(F)(F)F)cc2)=NO1 (configuration not stated),,inactive: 9.35%
Cn1cccc1Cc1nnc(SCC(=O)NCc2ccccc2)n1-c1ccc(F)cc1,"inconclusive: 29.1 µM [rising, single point]",
CC1CCCN(Cc2c(O)ccc3c(=O)c(-c4ccc(Cl)cc4)c(C(F)(F)F)oc23)C1 (configuration not stated),,inactive: 3.93%
CCC(C(=O)NC(C)(C)C)N(C(=O)Cn1nnc(-c2ccccc2F)n1)c1cccc2c1CCCC2 (configuration not stated),active: 1.64 µM,
Cc1ccccc1-c1nn(-c2ccc(F)cc2F)cc1CNCCN(C)C,"inconclusive: 25.9 µM [cytotoxic, partial curve, poor fit]",
CN1CCN(S(=O)(=O)c2cc(C(F)(F)F)ccc2Cl)CC1,"inconclusive: 9.2 µM [rising, single point]",
Cc1cccc(C(=O)NC(=O)Nc2ccc(-n3nc(C(F)(F)F)cc3C(F)(F)F)cc2)c1,,inactive: 24.2%
O=C(COC(=O)Cc1c(F)cccc1Cl)NNC(=O)c1ccccc1,,inactive: -7.57%
Cc1c2cnn(CC(=O)NCc3ccc(F)cc3)c(=O)c2c(C)n1Cc1ccccc1Cl,,inactive: -20.8%

# Further records follow.

Structure (SMILES),Potency,"activity change, negative = cytotoxicity"
COC(=O)CSCC(=O)Nc1nnc(-c2cccc(C)c2)s1,"inconclusive: 29.1 µM [rising, single point]",
O=[N+]([O-])c1cc(C(F)(F)F)ccc1-n1nnc2ccccc21,"inconclusive: 20.6 µM [cytotoxic, single point]",
Cc1cccc(CSC2=CS(=O)(=O)c3ccccc3N2)c1,"inconclusive: 23.1 µM [cytotoxic, single point]",
Cc1ccc(CNC(=O)Cn2c([N+](=O)[O-])cnc2C)cc1,,inactive: -15.3%
O=C1C(=Cc2cn(-c3ccccc3)nc2-c2ccc(OCc3ccc(Cl)cc3)cc2)SC(=S)N1CCS(=O)(=O)O,"inconclusive: 0.366 µM [rising, full curve]",
Cc1nn(-c2ccccc2)c2sc(C(=O)OCC(=O)N3CCCCC3)cc12,"inconclusive: 9.2 µM [cytotoxic, partial curve]",
CCN1CCN(c2ncnc3c2sc(=S)n3-c2ccccc2)CC1,"inconclusive: 29.1 µM [cytotoxic, single point]",
CCC1CN(C(=O)Nc2cc(OC)cc(OC)c2)c2ccccc2S1 (configuration not stated),,inactive: -5.66%
Cc1ccccc1C(=O)Nc1ccc(Cl)cn1,"inconclusive: 29.1 µM [cytotoxic, single point]",
O=C(COc1ccccc1Cl)Nc1ccc(N2CCN(C(=O)c3ccccc3)CC2)cc1,"inconclusive: 20.6 µM [cytotoxic, single point]",
Cc1ccc(-n2nnnc2SCC(=O)N2CCc3ccccc3C2)c(C)c1,active: 7.31 µM,
CCOc1ccc(N(CC(=O)NC2CCCCC2)C(=O)CNC(=O)c2cccs2)cc1,"inconclusive: 20.6 µM [cytotoxic, partial curve, poor fit]",
CC(C)COc1ccc2[nH]c3c(c2c1)CCCC3=O,active: 0.184 µM,
Cc1sc2ncnc(NCC(O)c3ccccc3)c2c1C (configuration not stated),"inconclusive: 18.4 µM [cytotoxic, single point]",
Cc1ccc(C(=O)COC(=O)c2cn3ccccc3n2)cc1,"inconclusive: 29.1 µM [rising, single point]",
O=P(O)(CCc1ccccc1)CN1CCCCC1,"inconclusive: 0.0092 µM [cytotoxic, full curve, poor fit]",
CCc1n[nH]c(=S)n1N=C1CCC(C)CC1 (configuration not stated),,inactive: 14.3%
COc1ccc(-n2nc3cc(C)c(NC(=O)c4ccc(C)cc4C)cc3n2)cc1Cl,"inconclusive: 23.1 µM [rising, single point]",
Cc1ccc(OCC(=O)OCc2cc(=O)n3c(C)csc3n2)cc1,,inactive: 3.25%
O=C(CN1CCN(S(=O)(=O)c2ccc(F)cc2)CC1)Nc1ccccc1C(=O)NC1CC1,"inconclusive: 8.2 µM [cytotoxic, partial curve]",
COc1ccc(/C=N/NC(=O)c2nc(-c3ccccc3)cc(-c3ccccc3)n2)cc1,,inactive: -3.34%
O=C(Cn1nc(C(F)(F)F)c2c1CCC2)N1CCN(c2ccccc2)CC1,active: 16.4 µM,
COc1cc(CNc2ncnc3c2ncn3[C@H]2CN(Cc3cccs3)C[C@@H](CO)O2)cc(OC)c1OC,,inactive: 4.08%
COc1ccc(CCn2c(=N)c(C(=O)NCC3CCCO3)cc3c(=O)n4cccc(C)c4nc32)cc1 (configuration not stated),,inconclusive: -30.1% [cytotoxic]

# Reformatted: results already given.
Structure (SMILES) | Potency | activity change, negative = cytotoxicity
O=C(Cn1nc(C(F)(F)F)c2c1CCC2)N1CCN(c2ccccc2)CC1 | active: 16.4 µM | 
COc1cc(CNc2ncnc3c2ncn3[C@H]2CN(Cc3cccs3)C[C@@H](CO)O2)cc(OC)c1OC |  | inactive: 4.08%

# Source: PubChem BioAssay AID1347076 (National Center for Advancing Translational Sciences (NCATS), 2019)
